# Results: the supplement of paper PMC8728848
# This is one part of the list.
# B1: Loc1 (Escherichia coli) (protein)
# chain: APCALTNVGEQRGTYILKPLSMKGNLTAEKIENTGNIIECTDLQETTNAIKVHFLTQNALKFKVGSRHYIINFPFEYDGKKIELPGKSSYNLEEMLSAINFTIPYSIASVSDSSNTADIFPGTPFPLLFEIEVSSCTGNNTNCNSVRFNYNLNTILQVNLMTHHHHHH
# Assays:
# Assay in all cases: glycan array binding signal (z-score within array); higher = stronger binding
# Details in all cases: glycan notation: IUPAC condensed, linker removed
# [1] = biological target: Fuc(a1-2)[GalNAc(a1-3)]Gal(b1-3)GlcNAc(b1-6)GalNAc
# Procedure, shortened: (§1)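 From the Consortium for Functional Glycomics database, 3228 arrays were curated, keeping only those whose protein sequence was available. Binding is given as a within-array Z-score averaged across arrays sharing a protein sequence and across linkers. Negative Z-scores can be read as non-binding.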
# [2] = biological target: Fuc(a1-2)[GalNAc(a1-3)]Gal(b1-4)Glc
# Procedure, shortened: as §1
# [3] = biological target: Fuc(a1-2)[GalNAc(a1-3)]Gal(b1-4)GlcNAc
# Procedure, shortened: as §1
# [4] = biological target: Fuc(a1-2)[GalNAc(a1-3)]Gal(b1-4)GlcNAc(b1-2)Man
# Procedure, shortened: as §1
# [5] = biological target: Fuc(a1-2)[GalNAc(a1-3)]Gal(b1-4)GlcNAc(b1-2)Man(a1-3)[Fuc(a1-2)[GalNAc(a1-3)]Gal(b1-4)GlcNAc(b1-2)Man(a1-6)]Man(b1-4)GlcNAc(b1-4)GlcNAc
# Procedure, shortened: as §1
# [6] = biological target: Fuc(a1-2)[GalNAc(a1-3)]Gal(b1-4)GlcNAc(b1-2)Man(a1-3)[Fuc(a1-2)[GalNAc(a1-3)]Gal(b1-4)GlcNAc(b1-2)Man(a1-6)]Man(b1-4)GlcNAc(b1-4)[Fuc(a1-6)]GlcNAc
# Procedure, shortened: as §1
# [7] = biological target: Fuc(a1-2)[GalNAc(a1-3)]Gal(b1-4)GlcNAc(b1-3)Gal(b1-4)GlcNAc
# Procedure, shortened: as §1
# [8] = biological target: Fuc(a1-2)[GalNAc(a1-3)]Gal(b1-4)GlcNAc(b1-3)Gal(b1-4)GlcNAc(b1-3)Gal(b1-4)GlcNAc
# Procedure, shortened: as §1
# [9] = biological target: Fuc(a1-2)[GalNAc(a1-3)]Gal(b1-4)GlcNAc(b1-3)GalNAc
# Procedure, shortened: as §1
# [10] = biological target: Fuc(a1-2)[GalNAc(a1-3)]Gal(b1-4)GlcNAc(b1-3)[Fuc(a1-2)[GalNAc(a1-3)]Gal(b1-4)GlcNAc(b1-6)]GalNAc
# Procedure, shortened: as §1
# [11] = biological target: Fuc(a1-2)[GalNAc(a1-3)]Gal(b1-4)GlcNAc(b1-6)GalNAc
# Procedure, shortened: as §1
# [12] = biological target: Fuc(a1-2)[GalNAc(a1-3)]Gal(b1-4)[Fuc(a1-3)]GlcNAc
# Procedure, shortened: as §1
# [13] = biological target: Fuc(a1-2)[GalNAc(a1-3)]Gal(b1-4)[Fuc(a1-3)]GlcNAc(b1-3)GalNAc
# Procedure, shortened: as §1
# [14] = biological target: Fuc(a1-2)[GalNAc(a1-4)]Gal(b1-4)GlcNAc
# Procedure, shortened: as §1
# [15] = biological target: Fuc(a1-2)[GalNAc(b1-3)]Gal
# Procedure, shortened: as §1
# [16] = biological target: Fuc(a1-3)GlcNAc
# Procedure, shortened: as §1
# [17] = biological target: Fuc(a1-3)[Gal(b1-4)]Glc6S
# Procedure, shortened: as §1
# [18] = biological target: Fuc(a1-3)[Gal(b1-4)]GlcNAc
# Procedure, shortened: as §1
# [19] = biological target: Fuc(a1-3)[Gal(b1-4)]GlcNAc(b1-2)Man
# Procedure, shortened: as §1
# [20] = biological target: Fuc(a1-3)[Gal(b1-4)]GlcNAc(b1-2)Man(a1-3)[Fuc(a1-3)[Gal(b1-4)]GlcNAc(b1-2)Man(a1-6)]Man(b1-4)GlcNAc(b1-4)GlcNAc
# Procedure, shortened: as §1
# [21] = biological target: Fuc(a1-3)[Gal(b1-4)]GlcNAc(b1-2)Man(a1-3)[Fuc(a1-3)[Gal(b1-4)]GlcNAc(b1-2)Man(a1-6)]Man(b1-4)GlcNAc(b1-4)[Fuc(a1-6)]GlcNAc
# Procedure, shortened: as §1
# [22] = biological target: Fuc(a1-3)[Gal(b1-4)]GlcNAc(b1-3)Gal(b1-3)[Fuc(a1-4)]GlcNAc
# Procedure, shortened: as §1
# [23] = biological target: Fuc(a1-3)[Gal(b1-4)]GlcNAc(b1-3)Gal(b1-4)[Fuc(a1-3)]GlcNAc
# Procedure, shortened: as §1
# [24] = biological target: Fuc(a1-3)[Gal(b1-4)]GlcNAc(b1-3)Gal(b1-4)[Fuc(a1-3)]GlcNAc(b1-3)Gal(b1-4)[Fuc(a1-3)]GlcNAc
# Procedure, shortened: as §1
# [25] = biological target: Fuc(a1-3)[Gal(b1-4)]GlcNAc(b1-3)GalNAc
# Procedure, shortened: as §1
# [26] = biological target: Fuc(a1-3)[Gal(b1-4)]GlcNAc(b1-6)GalNAc
# Procedure, shortened: as §1
# [27] = biological target: Fuc(a1-3)[Gal(b1-4)]GlcNAc(b1-6)[Gal(b1-3)GlcNAc(b1-3)]Gal(b1-4)Glc
# Procedure, shortened: as §1
# [28] = biological target: Fuc(a1-3)[Gal(b1-4)]GlcNAc6S
# Procedure, shortened: as §1
# [29] = biological target: Fuc(a1-3)[Gal3S(b1-4)]Glc
# Procedure, shortened: as §1
# [30] = biological target: Fuc(a1-3)[Gal3S(b1-4)]GlcNAc
# Procedure, shortened: as §1
# [31] = biological target: Fuc(a1-3)[Gal3S(b1-4)]GlcNAc6S
# Procedure, shortened: as §1
# [32] = biological target: Fuc(a1-3)[GalNAc(b1-4)]GlcNAc
# Procedure, shortened: as §1
# [33] = biological target: Fuc(a1-3)[GalNAc(b1-4)]GlcNAc6S
# Procedure, shortened: as §1
# [34] = biological target: Fuc(a1-4)GlcNAc
# Procedure, shortened: as §1
# [35] = biological target: Fuc(b1-3)GlcNAc
# Procedure, shortened: as §1
# [36] = biological target: Gal(a1-2)Gal
# Procedure, shortened: as §1
# [37] = biological target: Gal(a1-3)Gal
# Procedure, shortened: as §1
binder,measurement,setting,value
B1,glycan array binding signal (z-score),[1],-0.51
same,glycan array binding signal (z-score),[2],-0.07
same,glycan array binding signal (z-score),[3],-0.267
same,glycan array binding signal (z-score),[4],-0.354
same,glycan array binding signal (z-score),[5],0.273
same,glycan array binding signal (z-score),[6],0.012
same,glycan array binding signal (z-score),[7],-0.467
same,glycan array binding signal (z-score),[8],-0.079
same,glycan array binding signal (z-score),[9],-0.086
same,glycan array binding signal (z-score),[10],-0.761
same,glycan array binding signal (z-score),[11],0.466
same,glycan array binding signal (z-score),[12],0.143
same,glycan array binding signal (z-score),[13],-0.744
same,glycan array binding signal (z-score),[14],-0.024
same,glycan array binding signal (z-score),[15],-0.046
same,glycan array binding signal (z-score),[16],0.44
same,glycan array binding signal (z-score),[17],-0.016
same,glycan array binding signal (z-score),[18],0.591
same,glycan array binding signal (z-score),[19],-0.421
same,glycan array binding signal (z-score),[20],-0.255
same,glycan array binding signal (z-score),[21],-0.913
same,glycan array binding signal (z-score),[22],-0.366
same,glycan array binding signal (z-score),[23],-0.859
same,glycan array binding signal (z-score),[24],1.73
same,glycan array binding signal (z-score),[25],-0.41
same,glycan array binding signal (z-score),[26],3.45
same,glycan array binding signal (z-score),[27],-0.496
same,glycan array binding signal (z-score),[28],-0.349
same,glycan array binding signal (z-score),[29],0.786
same,glycan array binding signal (z-score),[30],-0.33
same,glycan array binding signal (z-score),[31],0.108
same,glycan array binding signal (z-score),[32],0.823
same,glycan array binding signal (z-score),[33],-0.614
same,glycan array binding signal (z-score),[34],-0.526
same,glycan array binding signal (z-score),[35],-0.529
same,glycan array binding signal (z-score),[36],-1.11
same,glycan array binding signal (z-score),[37],0.191

# 2 entries from above, with bars between the fields.
binder | measurement | setting | value
B1 | glycan array binding signal (z-score) | [5] | 0.273
same | glycan array binding signal (z-score) | [18] | 0.591
